Assay results: patent US20090305971A1 (YALE UNIVERSITY, published 2009)
Results are given in words; binding and its absence hold for the method and conditions named.

What was measured:
[1] = molecular target: T1, human Nogo-B receptor (NgBR), expressed from the cloned cDNA on transfected COS-7 or CHO cells (human) (UniProt Q96E22); test: surface binding of AP proteins to CHO cells expressing NgBR (FIG. 14)
T1 sequence: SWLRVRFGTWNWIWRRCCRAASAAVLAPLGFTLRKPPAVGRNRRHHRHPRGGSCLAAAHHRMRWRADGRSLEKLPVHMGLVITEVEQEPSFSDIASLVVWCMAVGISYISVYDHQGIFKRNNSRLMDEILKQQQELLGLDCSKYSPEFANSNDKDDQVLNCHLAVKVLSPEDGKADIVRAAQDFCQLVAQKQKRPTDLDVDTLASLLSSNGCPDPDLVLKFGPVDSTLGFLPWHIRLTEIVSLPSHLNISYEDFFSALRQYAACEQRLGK

[2] = molecular target: T2, Nogo-B receptor (NgBR), endogenous, on human umbilical vein endothelial cells (HUVEC) (human) (UniProt Q96E22); test: surface binding of AP proteins to HUVEC (FIG. 15)
T2 sequence: T1 sequence

Question: Which results are given for AP-Nogo-A (544-725) (ligand)?
Answer: binding [1]: no binding; binding [2]: no binding
